Reference: PubChem BioAssay AID2685 (National Center for Advancing Translational Sciences (NCATS), 2010)
This is one part of the list. The main result of the screen is listed elsewhere. These columns were measured beside it and carry no call. Most of these compounds were active or inconclusive in the main read-out, so they are no random draw. Potencies come from curve fits of mixed quality, noted in brackets.

Assay: qHTS Assay for Lipid Storage Modulators in Drosophila S3 Cells;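 as to cell number change: cells counted by Cell Tracker Red CMTPX staining in the red channel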
Details: BODIPY lipid droplet fluorescence, 18-24 h; for cell number change: measured here: cell count max response, cells fed with added oleic acid
Method in brief: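 Laser-scanning cytometry quantifies lipid droplet accumulation (500–530 nm total intensity; droplet/cell object ratio) in oleic acid-fed (400 uM added) Drosophila S3 cells treated with a concentration series. 20 uM Triacsin C defined 100% inhibition.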

[1] = measured here: lipid fluorescence (Fed channel) AC50, cells fed with added oleic acid
[2] = measured here: cell number channel AC50, cells fed with added oleic acid

SMILES	cell number change [%]	AC50 [1]	AC50 [2]
CC(OC(=O)c1cccnc1SCc1cc(=O)n2ccccc2n1)c1ccccn1 (configuration not stated)	8.77	–	–
COc1cc(OC)c(S(=O)(=O)Nc2ccccc2N2CCCCC2)cc1NC(C)=O	-0.367	0.651 µM [falling, full curve, poor fit]	–
O=C(NCc1ccccn1)[C@H]1C[C@@H]1[C@H](NP(=O)(c1ccccc1)c1ccccc1)c1ccccc1	5.28	16.4 µM [rising, partial curve, poor fit]	–
CCn1c(SCC(=O)N(C)C)nc2cc(S(=O)(=O)N3CCOCC3)ccc21	3	–	–
Cc1ccc(S(=O)(=O)N2CCOCC2)cc1C(=O)OCc1nnc(-c2ccccc2)o1	-2.99	23.1 µM [rising, partial curve, poor fit]	–
Cc1cccc(NC(=O)CN2CCN(C(=O)c3cccc(-n4cnnn4)c3)CC2)c1C	2.22	4.61 µM [rising, full curve, poor fit]	–
CCOC(=O)c1[nH]c2ccc(OC)cc2c1NC(=O)CCN1CCc2ccccc2C1	-8.96	0.259 µM [rising, full curve]	–
Cc1nn(Cc2ccccc2)c(Cl)c1C(=O)NCc1ccc(C)n1C	18.6	6.51 µM [rising, full curve, poor fit]	–
N#Cc1c[nH]n2c(=O)cc(Cc3ccccc3)nc12	-18.6	29.1 µM [falling, single point]	–
COc1ccccc1NC(=O)Cc1nnc(SCC(=O)c2ccc(F)cc2)n1C	14.3	–	–
CC1CC(=O)c2cnc(N3CCOCC3)nc2C1 (configuration not stated)	49.2	–	14.6 µM [rising, partial curve, poor fit]
Cn1cnnc1Sc1cc(N2CCN(S(=O)(=O)c3ccccc3)CC2)ccc1[N+](=O)[O-]	–	25.9 µM [rising, partial curve]	–
O=C(c1ccc(-c2nc3ccccc3s2)o1)N1CCN(c2ccccc2O)CC1	-37.2	11.6 µM [falling, partial curve]	32.6 µM [falling, single point]
CC1(C)CC(=O)c2cc(C(=O)N3CCCC(C)(C)C3)c(=O)n(-c3ccccc3)c2C1	-21.2	3.26 µM [falling, full curve, poor fit]	–
CCN(CC(=O)NCc1ccc(Cl)cc1)C(=O)CCC(=O)c1ccc(F)cc1	21.6	32.6 µM [rising, single point]	–
CCOC(=O)CNC(=O)c1sc(NC(=O)c2cccc(F)c2)nc1C	82.8	–	29.1 µM [rising, single point]
O=C(Nc1ccccc1Cl)c1cc(S(=O)(=O)N2CCCCC2)ccc1N1CCOCC1	-14.7	–	–
CC1(c2nnc(-c3ccccc3)o2)CC(c2cccc(Cl)c2)=NO1 (configuration not stated)	–	4.11 µM [rising, single point]	–
Clc1ccc(-n2ncc3c(NCc4cccnc4)ncnc32)cc1Cl	–	3.26 µM [falling, full curve]	–

Pulled by structure from the entries so far, two records:
SMILES	cell number change [%]	AC50 [1]	AC50 [2]
COc1cc(OC)c(S(=O)(=O)Nc2ccccc2N2CCCCC2)cc1NC(C)=O	-0.367	0.651 µM [falling, full curve, poor fit]	–
COc1ccccc1NC(=O)Cc1nnc(SCC(=O)c2ccc(F)cc2)n1C	14.3	–	–

(further entries)

SMILES	cell number change [%]	AC50 [1]	AC50 [2]
O=C(O)C1CCCCC1C(=O)NC1CCCCC1 (configuration not stated)	-12.3	4.11 µM [falling, partial curve, poor fit]	–
COc1cccc(CNc2ccc(F)c(Cl)c2)c1	-18.2	3.66 µM [falling, full curve]	1.03 µM [falling, full curve]
CC#C[C@@H](CC)c1ccc2ccn(C)c2c1	-37.6	0.164 µM [rising, single point]	23.1 µM [falling, single point]
COc1ccc(CC(=O)Nc2cc(C)c3c(=O)oc4ccccc4c3n2)cc1	–	0.13 µM [rising, full curve, poor fit]	0.116 µM [rising, full curve, poor fit]
CCOC(=O)C1CCN(C(=O)c2c(C)oc3c2C(=O)c2ccccc2C3=O)CC1	-28.4	18.4 µM [falling, partial curve]	–
O=C(Nc1ccc([N+](=O)[O-])cc1)Nc1ccc(Cl)cc1F	-48.9	13 µM [falling, partial curve]	0.231 µM [falling, full curve]
CCN(c1ccc(OC)cc1)S(=O)(=O)c1ccc(-c2cc(C)no2)s1	-10.4	18.4 µM [rising, single point]	–
O=C(NC1C2CC3CC(C2)CC1C3)C1CCCCC1 (configuration not stated)	-2.46	–	–
Cc1ccc(-c2ccc(OC(=O)c3ccc(=O)[nH]c3)c(C)c2)cc1	22.7	–	–
Cc1cc2c(cc(C(=O)N3CCC(C(=O)N4CCCC4)CC3)n2Cc2c(F)cccc2Cl)o1	-62.3	18.4 µM [falling, single point]	20.6 µM [falling, single point]
COc1ccc(C(CC(=O)NCCN2CCOCC2)NS(=O)(=O)c2ccc(C)cc2)cc1 (configuration not stated)	–	2.06 µM [falling, partial curve]	–
O=C(COc1cccc(C(F)(F)F)c1)Nc1ccc(S(=O)(=O)N2CCCC2)cc1	-35.3	–	5.8 µM [falling, single point]
CCC(=O)Oc1ccc(C(=O)Nc2ccc3c(c2)C(=O)N(C2CCCCC2)C3=O)cc1	34.9	20.6 µM [rising, partial curve]	32.6 µM [rising, single point]
CCc1ccc(-c2c(C)sc(NC(=O)C3CCC3)c2C#N)cc1	-10.1	0.58 µM [falling, partial curve]	–
O=C(c1ccccc1)N1CCSc2sccc2C1=O	13.9	–	–
Cc1ccccc1NC(=O)Cc1nc(COC(=O)c2cc(Br)ccc2O)cs1	-39.2	1.64 µM [falling, partial curve]	18.4 µM [falling, single point]
CCC(=O)Nc1ccc(CCC(=O)N2CCCC2)cc1	8.11	–	–
CCCc1nnc(SCC(=O)Nc2ccc(OC)cc2)o1	10.3	0.092 µM [rising, full curve, poor fit]	–
c1ccc(-c2cnnc3ccccc23)cc1	20.3	18.4 µM [rising, single point]	0.291 µM [rising, full curve, poor fit]
